These are yes or no findings as the source states them, for the method shown. In cells and extracts the contact can be indirect. A yes stands for co-enrichment or nearness to the bait. Other partners may have been found.
Target: METTL8 fused to the Twin-Strep tag at the C-terminus (human) (UniProt Q9H825)

Amino acid sequences for entries named in this document (tags omitted). A change or cut given only in a name is not applied to a line headed by its entry. Residues count along the entry.
UniProt Q9H825: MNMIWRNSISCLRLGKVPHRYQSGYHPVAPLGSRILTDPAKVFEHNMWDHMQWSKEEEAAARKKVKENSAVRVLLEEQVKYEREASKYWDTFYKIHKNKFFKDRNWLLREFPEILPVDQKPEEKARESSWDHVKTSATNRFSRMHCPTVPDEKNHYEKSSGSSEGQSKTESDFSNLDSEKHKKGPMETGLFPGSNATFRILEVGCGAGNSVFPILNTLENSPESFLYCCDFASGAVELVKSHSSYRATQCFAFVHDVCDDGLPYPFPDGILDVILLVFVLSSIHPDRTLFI
UniProt Q9NP81, residues 35-518: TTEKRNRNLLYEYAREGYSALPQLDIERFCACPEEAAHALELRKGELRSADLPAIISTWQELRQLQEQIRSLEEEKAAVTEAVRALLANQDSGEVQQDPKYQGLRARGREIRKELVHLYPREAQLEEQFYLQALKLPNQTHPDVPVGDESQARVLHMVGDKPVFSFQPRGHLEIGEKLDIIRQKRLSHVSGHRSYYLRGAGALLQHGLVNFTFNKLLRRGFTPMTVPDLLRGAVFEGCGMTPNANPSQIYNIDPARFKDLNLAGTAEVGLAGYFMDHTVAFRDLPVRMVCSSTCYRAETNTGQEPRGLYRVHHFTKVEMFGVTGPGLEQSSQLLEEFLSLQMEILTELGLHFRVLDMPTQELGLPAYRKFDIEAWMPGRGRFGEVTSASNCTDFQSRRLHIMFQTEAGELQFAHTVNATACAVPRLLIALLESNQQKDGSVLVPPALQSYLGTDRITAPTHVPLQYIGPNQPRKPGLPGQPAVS

**Q.** Which binding does the source give for “endogenous mitochondrial seryl-tRNA synthetase (SARS2) (from UniProt Q9NP81 35-518) (enzyme)” here?
**A.** The binding was “binds”.
